Data from the supplement of paper PMC10849652.
This is one part of the list.

Chains of the proteins cited; added tags and fusions are not shown. Lines headed by an entry give the natural chain unless they say otherwise; changes in a name come on top.
UniProt Q70Z53: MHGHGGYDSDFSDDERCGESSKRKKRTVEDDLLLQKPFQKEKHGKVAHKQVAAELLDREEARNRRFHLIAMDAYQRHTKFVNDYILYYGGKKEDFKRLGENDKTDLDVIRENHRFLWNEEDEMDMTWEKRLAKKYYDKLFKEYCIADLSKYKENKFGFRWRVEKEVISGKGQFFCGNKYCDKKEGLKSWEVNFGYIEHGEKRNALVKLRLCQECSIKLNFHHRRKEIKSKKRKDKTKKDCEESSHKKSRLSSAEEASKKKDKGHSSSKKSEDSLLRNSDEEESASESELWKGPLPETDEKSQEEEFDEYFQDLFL
UniProt P55789: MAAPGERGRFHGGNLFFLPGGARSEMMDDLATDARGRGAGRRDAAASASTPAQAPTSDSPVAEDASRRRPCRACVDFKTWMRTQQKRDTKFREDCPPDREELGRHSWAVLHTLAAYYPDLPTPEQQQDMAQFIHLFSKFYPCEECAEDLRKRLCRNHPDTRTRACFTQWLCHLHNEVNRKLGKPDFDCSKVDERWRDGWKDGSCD
UniProt P16383: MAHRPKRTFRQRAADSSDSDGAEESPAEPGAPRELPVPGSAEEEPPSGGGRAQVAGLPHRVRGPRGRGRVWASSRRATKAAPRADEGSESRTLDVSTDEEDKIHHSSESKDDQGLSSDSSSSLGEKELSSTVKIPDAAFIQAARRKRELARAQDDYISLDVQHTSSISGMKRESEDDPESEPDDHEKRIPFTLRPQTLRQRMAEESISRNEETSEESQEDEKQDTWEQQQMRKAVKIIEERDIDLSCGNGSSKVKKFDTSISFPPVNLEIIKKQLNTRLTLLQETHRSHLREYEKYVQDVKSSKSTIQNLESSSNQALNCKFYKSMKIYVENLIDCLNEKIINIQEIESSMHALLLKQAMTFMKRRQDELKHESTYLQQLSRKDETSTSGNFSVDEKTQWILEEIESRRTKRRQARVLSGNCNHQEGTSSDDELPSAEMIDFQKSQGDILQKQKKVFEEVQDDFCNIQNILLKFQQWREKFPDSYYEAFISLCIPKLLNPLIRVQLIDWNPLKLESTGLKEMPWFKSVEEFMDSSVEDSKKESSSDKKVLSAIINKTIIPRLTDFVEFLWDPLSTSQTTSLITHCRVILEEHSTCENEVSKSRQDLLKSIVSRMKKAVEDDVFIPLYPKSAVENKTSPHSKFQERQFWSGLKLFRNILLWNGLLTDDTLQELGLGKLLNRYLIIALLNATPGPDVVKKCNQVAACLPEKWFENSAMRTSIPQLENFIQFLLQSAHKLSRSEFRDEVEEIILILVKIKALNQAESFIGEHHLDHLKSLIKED
UniProt Q9UN86: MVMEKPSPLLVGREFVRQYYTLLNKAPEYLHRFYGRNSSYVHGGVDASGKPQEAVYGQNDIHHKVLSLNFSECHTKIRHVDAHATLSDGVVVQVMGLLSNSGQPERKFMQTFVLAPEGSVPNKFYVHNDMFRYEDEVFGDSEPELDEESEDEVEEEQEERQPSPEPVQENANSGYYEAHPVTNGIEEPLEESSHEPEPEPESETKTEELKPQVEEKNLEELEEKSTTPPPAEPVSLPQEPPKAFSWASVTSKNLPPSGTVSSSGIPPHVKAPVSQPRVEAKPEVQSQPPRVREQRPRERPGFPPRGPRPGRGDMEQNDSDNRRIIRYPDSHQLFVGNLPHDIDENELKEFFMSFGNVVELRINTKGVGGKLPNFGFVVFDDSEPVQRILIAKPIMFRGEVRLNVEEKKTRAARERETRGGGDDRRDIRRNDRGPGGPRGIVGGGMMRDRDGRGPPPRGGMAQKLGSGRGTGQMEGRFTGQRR
UniProt Q7L5D6: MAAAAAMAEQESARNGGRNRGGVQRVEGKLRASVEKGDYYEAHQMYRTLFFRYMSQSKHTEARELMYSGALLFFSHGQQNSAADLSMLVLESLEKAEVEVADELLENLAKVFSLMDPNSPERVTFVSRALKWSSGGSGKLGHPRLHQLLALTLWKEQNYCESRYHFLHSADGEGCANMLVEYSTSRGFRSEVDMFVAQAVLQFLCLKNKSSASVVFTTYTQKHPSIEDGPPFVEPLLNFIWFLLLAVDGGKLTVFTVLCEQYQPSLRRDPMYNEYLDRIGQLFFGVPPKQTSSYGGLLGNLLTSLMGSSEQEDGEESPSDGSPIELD
UniProt Q9UPW0: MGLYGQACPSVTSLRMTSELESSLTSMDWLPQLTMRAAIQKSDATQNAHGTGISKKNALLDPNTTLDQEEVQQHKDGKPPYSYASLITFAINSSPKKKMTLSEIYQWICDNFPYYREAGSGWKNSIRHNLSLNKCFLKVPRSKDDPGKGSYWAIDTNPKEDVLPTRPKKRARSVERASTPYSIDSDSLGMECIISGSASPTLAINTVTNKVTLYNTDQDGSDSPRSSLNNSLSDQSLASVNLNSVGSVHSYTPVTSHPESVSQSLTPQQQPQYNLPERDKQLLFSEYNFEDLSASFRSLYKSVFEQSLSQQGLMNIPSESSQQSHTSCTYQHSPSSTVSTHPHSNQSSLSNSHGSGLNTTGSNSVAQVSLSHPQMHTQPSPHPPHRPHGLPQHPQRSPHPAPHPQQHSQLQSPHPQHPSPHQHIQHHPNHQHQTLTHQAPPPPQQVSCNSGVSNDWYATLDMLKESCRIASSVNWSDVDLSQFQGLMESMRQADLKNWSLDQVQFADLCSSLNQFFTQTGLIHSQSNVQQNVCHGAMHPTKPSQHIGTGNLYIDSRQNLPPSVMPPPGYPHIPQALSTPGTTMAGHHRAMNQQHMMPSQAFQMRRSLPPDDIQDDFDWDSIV
UniProt Q9UJY4: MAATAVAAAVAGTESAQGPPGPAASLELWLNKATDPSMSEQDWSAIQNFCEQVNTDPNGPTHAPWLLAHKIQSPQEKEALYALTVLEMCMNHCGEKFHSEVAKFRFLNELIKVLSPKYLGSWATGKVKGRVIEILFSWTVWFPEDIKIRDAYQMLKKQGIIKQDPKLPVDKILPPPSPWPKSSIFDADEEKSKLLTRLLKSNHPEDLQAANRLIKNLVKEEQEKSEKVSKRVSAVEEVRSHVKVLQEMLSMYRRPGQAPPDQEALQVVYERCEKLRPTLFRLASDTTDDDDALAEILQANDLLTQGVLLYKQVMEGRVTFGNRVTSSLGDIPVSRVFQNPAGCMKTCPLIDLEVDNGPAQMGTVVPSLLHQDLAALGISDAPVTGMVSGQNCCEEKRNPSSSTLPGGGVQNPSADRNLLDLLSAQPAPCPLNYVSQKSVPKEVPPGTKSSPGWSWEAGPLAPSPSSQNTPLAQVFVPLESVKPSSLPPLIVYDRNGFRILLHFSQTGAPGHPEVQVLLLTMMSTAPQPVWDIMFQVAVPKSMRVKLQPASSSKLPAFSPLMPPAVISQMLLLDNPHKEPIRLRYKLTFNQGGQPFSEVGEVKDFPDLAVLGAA
UniProt Q8N9F7: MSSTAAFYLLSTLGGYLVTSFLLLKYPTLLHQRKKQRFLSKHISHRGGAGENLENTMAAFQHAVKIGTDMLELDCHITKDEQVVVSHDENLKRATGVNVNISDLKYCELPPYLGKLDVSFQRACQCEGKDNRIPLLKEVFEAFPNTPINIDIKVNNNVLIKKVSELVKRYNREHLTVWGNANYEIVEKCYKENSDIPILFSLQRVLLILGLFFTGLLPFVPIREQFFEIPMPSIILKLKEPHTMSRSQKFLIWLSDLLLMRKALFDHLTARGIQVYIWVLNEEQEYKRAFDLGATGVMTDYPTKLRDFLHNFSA
UniProt O14976: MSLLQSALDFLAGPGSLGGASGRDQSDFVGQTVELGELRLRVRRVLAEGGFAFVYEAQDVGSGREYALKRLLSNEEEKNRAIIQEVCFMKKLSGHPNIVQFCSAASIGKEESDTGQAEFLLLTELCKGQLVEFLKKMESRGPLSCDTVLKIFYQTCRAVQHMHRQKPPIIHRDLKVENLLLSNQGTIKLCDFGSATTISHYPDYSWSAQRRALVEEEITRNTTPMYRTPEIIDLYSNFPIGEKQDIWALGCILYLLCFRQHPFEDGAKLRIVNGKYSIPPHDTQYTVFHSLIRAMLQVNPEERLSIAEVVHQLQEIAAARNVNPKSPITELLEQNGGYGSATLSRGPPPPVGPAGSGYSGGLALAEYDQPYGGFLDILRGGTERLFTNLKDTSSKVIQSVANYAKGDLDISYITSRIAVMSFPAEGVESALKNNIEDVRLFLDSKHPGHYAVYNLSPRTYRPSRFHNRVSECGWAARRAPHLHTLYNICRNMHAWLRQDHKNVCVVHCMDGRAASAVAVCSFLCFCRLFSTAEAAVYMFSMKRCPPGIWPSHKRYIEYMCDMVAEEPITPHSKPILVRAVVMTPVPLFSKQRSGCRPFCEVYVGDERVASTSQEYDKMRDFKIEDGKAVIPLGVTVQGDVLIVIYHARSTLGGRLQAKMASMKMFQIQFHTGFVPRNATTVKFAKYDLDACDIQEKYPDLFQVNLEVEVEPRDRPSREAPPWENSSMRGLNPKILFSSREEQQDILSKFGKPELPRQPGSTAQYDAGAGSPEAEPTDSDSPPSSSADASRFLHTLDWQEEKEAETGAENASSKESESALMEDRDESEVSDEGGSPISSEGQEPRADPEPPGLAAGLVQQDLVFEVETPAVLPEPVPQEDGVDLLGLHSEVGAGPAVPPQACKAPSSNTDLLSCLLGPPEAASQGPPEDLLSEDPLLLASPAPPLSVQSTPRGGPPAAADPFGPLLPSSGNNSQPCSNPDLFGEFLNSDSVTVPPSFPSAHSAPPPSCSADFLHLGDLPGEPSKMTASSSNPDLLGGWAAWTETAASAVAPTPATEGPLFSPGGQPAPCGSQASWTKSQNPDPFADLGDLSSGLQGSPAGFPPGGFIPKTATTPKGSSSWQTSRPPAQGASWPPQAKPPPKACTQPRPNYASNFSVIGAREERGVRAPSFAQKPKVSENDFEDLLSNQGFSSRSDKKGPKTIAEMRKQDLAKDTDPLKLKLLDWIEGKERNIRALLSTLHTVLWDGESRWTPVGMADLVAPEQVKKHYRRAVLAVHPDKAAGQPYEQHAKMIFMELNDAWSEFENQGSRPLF
UniProt Q14697: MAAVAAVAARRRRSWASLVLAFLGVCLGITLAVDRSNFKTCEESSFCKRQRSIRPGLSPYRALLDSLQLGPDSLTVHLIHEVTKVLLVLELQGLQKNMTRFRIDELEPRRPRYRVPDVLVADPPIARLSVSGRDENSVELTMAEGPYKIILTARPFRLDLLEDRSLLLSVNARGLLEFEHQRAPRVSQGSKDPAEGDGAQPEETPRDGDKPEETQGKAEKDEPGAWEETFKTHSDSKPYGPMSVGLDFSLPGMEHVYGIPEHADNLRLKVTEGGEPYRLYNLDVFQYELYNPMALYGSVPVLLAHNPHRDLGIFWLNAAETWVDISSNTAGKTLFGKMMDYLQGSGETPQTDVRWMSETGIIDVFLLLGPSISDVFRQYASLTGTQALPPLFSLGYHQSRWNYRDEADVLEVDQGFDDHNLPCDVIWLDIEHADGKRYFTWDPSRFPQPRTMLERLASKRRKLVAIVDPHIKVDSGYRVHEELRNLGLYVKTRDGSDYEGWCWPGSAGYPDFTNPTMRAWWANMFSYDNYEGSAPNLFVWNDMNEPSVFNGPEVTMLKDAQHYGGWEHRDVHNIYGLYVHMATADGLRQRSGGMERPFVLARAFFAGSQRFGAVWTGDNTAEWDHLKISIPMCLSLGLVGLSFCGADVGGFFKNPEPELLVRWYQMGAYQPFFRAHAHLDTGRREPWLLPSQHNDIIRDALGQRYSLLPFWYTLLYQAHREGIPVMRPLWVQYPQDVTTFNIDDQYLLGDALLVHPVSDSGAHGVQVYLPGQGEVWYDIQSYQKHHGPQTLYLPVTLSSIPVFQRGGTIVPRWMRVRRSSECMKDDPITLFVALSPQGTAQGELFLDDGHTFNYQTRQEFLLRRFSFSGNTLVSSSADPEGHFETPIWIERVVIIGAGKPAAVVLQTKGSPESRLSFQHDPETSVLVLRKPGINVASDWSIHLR
UniProt O95166, whole entry, looked up: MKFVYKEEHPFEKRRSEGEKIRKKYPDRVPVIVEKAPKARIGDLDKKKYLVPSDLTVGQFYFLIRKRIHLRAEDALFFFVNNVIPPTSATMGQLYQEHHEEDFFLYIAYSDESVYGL
UniProt Q9NXN4: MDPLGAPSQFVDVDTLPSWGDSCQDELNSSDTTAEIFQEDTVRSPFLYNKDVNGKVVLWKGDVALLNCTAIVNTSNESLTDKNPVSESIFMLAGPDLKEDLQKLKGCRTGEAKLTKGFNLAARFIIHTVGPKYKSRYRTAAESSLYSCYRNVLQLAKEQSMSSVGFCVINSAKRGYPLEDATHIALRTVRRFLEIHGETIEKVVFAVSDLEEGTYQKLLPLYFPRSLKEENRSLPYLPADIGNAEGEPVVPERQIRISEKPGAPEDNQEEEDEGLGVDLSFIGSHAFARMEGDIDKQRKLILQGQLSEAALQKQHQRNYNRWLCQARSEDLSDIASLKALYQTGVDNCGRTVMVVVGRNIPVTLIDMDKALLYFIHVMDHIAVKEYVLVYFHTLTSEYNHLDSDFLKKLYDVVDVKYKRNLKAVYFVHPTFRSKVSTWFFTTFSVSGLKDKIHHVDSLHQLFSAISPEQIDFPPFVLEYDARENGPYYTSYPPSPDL

Experiments:
Test in all cases: log2 fold change, soluble protein after heating vs DMSO (PISA); higher = thermal stabilisation; K562 lysate, 10 uM; active = over 0.2 and 3.5 SD of the protein, either way, in both replicates (recomputed)
ibrutinib = compound: C=CC(=O)N1CCC[C@@H](n2nc(-c3ccc(Oc4ccccc4)cc3)c3c(N)ncnc32)C1 [ibrutinib]
Method in brief: (§1)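 K562 pellets were dounce-homogenised in PBS pH 7.4 containing 1 mM MgCl2, and the crude extract, at 1 mg/mL protein, was exposed to 10 μM compound for 30 min. Aliquots were heated for 3 min across 48°C-58°C, pooled, brought to 0.5% NP-40 at 4°C and spun at 21,000xg for 90 min, with the supernatant taken as soluble protein. TMTpro 16plex LC-MS/MS with equalised channel sums quantified that protein. Values are log-two fold changes in thermal stability relative to solvent controls, taken from duplicates.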

[1] = compound: CC(=O)c1cnc2ccc(-c3cc(Cl)c(O)c(Cl)c3)nc2c1N[C@H]1CC[C@H](CN(C)C)CC1
Method in brief: as §1

ralimetinib = compound: CC(C)(C)Cn1c(N)nc2ccc(-c3[nH]c(C(C)(C)C)nc3-c3ccc(F)cc3)nc21 [ralimetinib]
Method in brief: as §1

[2] = compound: CC(C)(O)CC(=O)NCCn1ccc2ncnc(Nc3ccc(Oc4cccc(C(F)(F)F)c4)c(Cl)c3)c21
Method in brief: as §1

[3] = compound: CC(C)C1=C2N=C(C=C(N2N=C1)NCC3=CC=CC=C3)NCCCCCCN
Method in brief: as §1

[4] = compound: CC1=C(C(CC(=O)N1)C2=CC=C(C=C2)C(F)(F)F)C(=O)NC3=C(C=C4C(=C3)C=NN4)F
Method in brief: as §1

[5] = compound: CC1=C(C2=C(C=C1)C(=O)C3=CC=CC=C3N2CCCN)C
Method in brief: as §1

[6] = compound: CC1=C(C=C(C=C1)NC(=O)C2=CC(=CC=C2)C(C)(C)C#N)NC3=CC4=C(C=C3)N=CN(C4=O)C
Method in brief: as §1

[7] = compound: CC1=C(C=C(C=C1)NC(=O)C2=CC(=CC=C2)N(C)C)NC(=O)C3=CC=C(C=C3)O
Method in brief: as §1

[8] = compound: CC1=CC=C(C=C1)SC2=C3C=C(SC3=CN=C2)C(=O)N
Method in brief: as §1

vemurafenib = compound: CCCS(=O)(=O)Nc1ccc(F)c(C(=O)c2c[nH]c3ncc(-c4ccc(Cl)cc4)cc23)c1F [vemurafenib]
Method in brief: as §1

[9] = compound: CCCS(=O)(=O)Nc1ccc(F)c(C(=O)c2c[nH]c3ncc(Cl)cc23)c1F
Method in brief: as §1

barasertib = compound: CCN(CCCOc1ccc2c(Nc3cc(CC(=O)Nc4cccc(F)c4)[nH]n3)ncnc2c1)CCOP(=O)(O)O [barasertib]
Method in brief: as §1

[10] = compound: CC[C@@H]1C(=O)N(C)c2cnc(Nc3ccc(C(=O)NC4CCN(C)CC4)cc3OC)nc2N1C1CCCC1
Method in brief: as §1

volasertib = compound: CC[C@@H]1C(=O)N(C)c2cnc(Nc3ccc(C(=O)N[C@H]4CC[C@H](N5CCN(CC6CC6)CC5)CC4)cc3OC)nc2N1C(C)C [volasertib]
Method in brief: as §1

[11] = compound: CCn1c(C(=O)N(C2CC2)C2CC2)cc2c3c(ncn3C)c(Nc3cc(C)n(C)n3)nc21
Method in brief: as §1

[12] = compound: CCn1cc(-c2ccnc3[nH]c(-c4cccc(CN(C)C)c4)cc23)c(-c2ccc(NC(=O)N(C)C)cc2)n1
Method in brief: as §1

[13] = compound: CN1CCC(CNc2ccc3ncc(-c4cccc(OC(F)(F)F)c4)n3n2)CC1
Method in brief: as §1

saracatinib = compound: CN1CCN(CCOc2cc(OC3CCOCC3)c3c(Nc4c(Cl)ccc5c4OCO5)ncnc3c2)CC1 [saracatinib]
Method in brief: as §1

sotrastaurin = compound: CN1CCN(c2nc(C3=C(c4c[nH]c5ccccc45)C(=O)NC3=O)c3ccccc3n2)CC1 [sotrastaurin]
Method in brief: as §1

Measured: log2 fold change

FRA10AC1 (UniProt Q70Z53)
inactive: ibrutinib -0.025 | [1] 0.014 | ralimetinib -0.002 | [2] 0.025 | [3] -0.003 | [4] -0.002 | [5] 0.007 | [6] -0.015 | [7] -0.022 | [8] -0.057 | vemurafenib -0.045 | [9] 0.009 | barasertib -0.013 | [10] 0.036 | volasertib -0.007 | [11] 0.038 | [12] 0.046 | [13] 0.02 | saracatinib 0.005 | sotrastaurin 0.038

GFER (UniProt P55789)
inactive: ibrutinib -0.026 | [1] -0.016 | ralimetinib -0.005 | [2] -0.035 | [3] -0.079 | [4] -0.11 | [5] 0.015 | [6] 0.056 | [7] -0.064 | [8] 0.029 | vemurafenib 0 | [9] 0.022 | barasertib 0.048 | [10] 0.111 | volasertib -0.048 | [11] 0.016 | [12] 0.059 | [13] 0 | saracatinib 0.106 | sotrastaurin 0.015

GCFC2 (UniProt P16383)
inactive: ibrutinib 0.052 | [1] 0.031 | ralimetinib -0.016 | [2] -0.046 | [3] -0.095 | [4] 0.011 | [5] 0.007 | [6] -0.024 | [7] 0.016 | [8] -0.051 | vemurafenib 0.053 | [9] 0.008 | barasertib -0.026 | [10] 0.029 | volasertib -0.019 | [11] -0.014 | [12] -0.01 | [13] 0.032 | saracatinib -0.002 | sotrastaurin 0.004

2 consecutive records out of the list so far, quoted:
GFER (UniProt P55789)
inactive: ibrutinib -0.026 | [1] -0.016 | ralimetinib -0.005 | [2] -0.035 | [3] -0.079 | [4] -0.11 | [5] 0.015 | [6] 0.056 | [7] -0.064 | [8] 0.029 | vemurafenib 0 | [9] 0.022 | barasertib 0.048 | [10] 0.111 | volasertib -0.048 | [11] 0.016 | [12] 0.059 | [13] 0 | saracatinib 0.106 | sotrastaurin 0.015

GCFC2 (UniProt P16383)
inactive: ibrutinib 0.052 | [1] 0.031 | ralimetinib -0.016 | [2] -0.046 | [3] -0.095 | [4] 0.011 | [5] 0.007 | [6] -0.024 | [7] 0.016 | [8] -0.051 | vemurafenib 0.053 | [9] 0.008 | barasertib -0.026 | [10] 0.029 | volasertib -0.019 | [11] -0.014 | [12] -0.01 | [13] 0.032 | saracatinib -0.002 | sotrastaurin 0.004

(next part)

FXN (UniProt Q16595)
inactive: ibrutinib 0.047 | [1] -0.041 | ralimetinib -0.044 | [2] -0.01 | [3] 0.008 | [4] -0.067 | [5] 0.018 | [6] 0.042 | [7] -0.023 | [8] 0.071 | vemurafenib -0.002 | [9] -0.041 | barasertib 0.151 | [10] 0.067 | volasertib 0.055 | [11] 0.019 | [12] 0.167 | [13] -0.136 | saracatinib 0.03 | sotrastaurin -0.019

G3BP2 (UniProt Q9UN86)
inactive: ibrutinib -0.019 | [1] -0.004 | ralimetinib 0.003 | [2] -0.011 | [3] 0.053 | [4] 0.026 | [5] -0.059 | [6] -0.096 | [7] -0.007 | [8] 0.008 | vemurafenib 0.008 | [9] 0.017 | barasertib 0.016 | [10] 0.009 | volasertib -0.032 | [11] -0.004 | [12] 0.028 | [13] -0.055 | saracatinib 0.005 | sotrastaurin 0.03

GET4 (UniProt Q7L5D6)
inactive: ibrutinib 0.007 | [1] 0.01 | ralimetinib 0.007 | [2] -0.022 | [3] 0.026 | [4] 0.03 | [5] -0.013 | [6] -0.011 | [7] -0.016 | [8] 0.027 | vemurafenib 0.041 | [9] 0.031 | barasertib 0.027 | [10] -0.012 | volasertib -0.049 | [11] 0.021 | [12] 0.029 | [13] -0.124 | saracatinib 0.076 | sotrastaurin 0.058

FOXJ3 (UniProt Q9UPW0)
inactive: ibrutinib -0.003 | [1] 0.002 | ralimetinib -0.021 | [2] -0.08 | [3] 0.047 | [4] -0.026 | [5] -0.022 | [6] 0.071 | [7] 0.025 | [8] 0.006 | vemurafenib 0.111 | [9] 0.124 | barasertib 0.038 | [10] 0.054 | volasertib -0.096 | [11] 0.02 | [12] 0.032 | [13] -0.08 | saracatinib 0.023 | sotrastaurin 0.018

GDI1 (UniProt P31150)
inactive: ibrutinib -0.025 | [1] 0 | ralimetinib 0.002 | [2] 0.005 | [3] -0.02 | [4] -0.021 | [5] -0.002 | [6] 0.004 | [7] -0.009 | [8] 0.01 | vemurafenib -0.003 | [9] 0.003 | barasertib -0.002 | [10] -0.04 | volasertib -0.002 | [11] 0.014 | [12] 0.128 | [13] 0.006 | saracatinib 0.008 | sotrastaurin -0.01

GGA2 (UniProt Q9UJY4)
inactive: ibrutinib -0.007 | [1] 0 | ralimetinib 0.026 | [2] -0.01 | [3] -0.062 | [4] 0.099 | [5] 0.01 | [6] -0.024 | [7] 0.031 | [8] -0.021 | vemurafenib -0.003 | [9] 0.011 | barasertib 0.073 | [10] -0.005 | volasertib -0.048 | [11] 0.032 | [12] -0.02 | [13] -0.088 | saracatinib 0.025 | sotrastaurin 0.041

GDPD1 (UniProt Q8N9F7)
inactive: ibrutinib 0.039 | [1] -0.058 | ralimetinib 0.06 | [2] -0.137 | [3] 0.047 | [4] -0.032 | [5] -0.001 | [6] 0.055 | [7] 0.024 | [8] -0.063 | vemurafenib 0.116 | [9] 0.055 | barasertib -0.005 | [10] 0.041 | volasertib -0.008 | [11] 0.004 | [12] 0.074 | [13] -0.032 | saracatinib -0.023 | sotrastaurin 0.005

GADD45GIP1 (UniProt Q8TAE8)
inactive: ibrutinib 0.024 | [1] -0.009 | ralimetinib 0.013 | [2] 0.004 | [3] -0.013 | [4] 0.044 | [5] -0.094 | [6] 0.018 | [7] -0.029 | [8] 0.049 | vemurafenib -0.011 | [9] 0.041 | barasertib 0.047 | [10] 0.018 | volasertib 0.014 | [11] 0.005 | [12] -0.021 | [13] 0.081 | saracatinib -0.039 | sotrastaurin -0.015

GAK (UniProt O14976)
inactive: ibrutinib -0.055 | [1] 0.367 | ralimetinib 0.666 | [2] -0.065 | [3] -0.019 | [4] -0.108 | [5] -0.056 | [6] 0.14 | [7] -0.049 | [8] 0.141 | vemurafenib -0.167 | [9] -0.166 | barasertib 0.106 | [10] 0.361 | volasertib -0.017 | [11] -0.035 | [12] -0.083 | [13] 0.442 | saracatinib 0.485 | sotrastaurin 0.082

GANAB isoform 2 (UniProt Q14697)
inactive: ibrutinib -0.029 | [1] -0.003 | ralimetinib 0.002 | [2] 0.002 | [3] -0.016 | [4] 0.001 | [5] -0.009 | [6] -0.015 | [7] 0.01 | [8] 0.006 | vemurafenib 0 | [9] 0.003 | barasertib 0.02 | [10] 0.013 | volasertib -0.017 | [11] 0.023 | [12] -0.059 | [13] 0.006 | saracatinib -0.014 | sotrastaurin 0.012

GABARAP (UniProt O95166)
inactive: ibrutinib 0.099 | [1] -0.006 | ralimetinib 0.038 | [2] 0.089 | [3] -0.015 | [4] -0.049 | [5] -0.013 | [6] -0.012 | [7] -0.021 | [8] 0 | vemurafenib 0.07 | [9] 0.06 | barasertib -0.02 | [10] 0.003 | volasertib 0.015 | [11] -0.028 | [12] 0.142 | [13] 0.051 | saracatinib 0.016 | sotrastaurin 0.002

FYCO1 isoform 4 (UniProt Q9BQS8)
inactive: ibrutinib -0.012 | [1] -0.015 | ralimetinib 0.021 | [2] -0.026 | [3] 0 | [4] 0.029 | [5] -0.019 | [6] -0.003 | [7] -0.028 | [8] 0 | vemurafenib 0.024 | [9] 0.019 | barasertib 0.045 | [10] 0.027 | volasertib -0.004 | [11] 0.031 | [12] -0.104 | [13] 0.063 | saracatinib 0.04 | sotrastaurin 0

GDAP2 (UniProt Q9NXN4)
inactive: ibrutinib -0.039 | [1] 0.016 | ralimetinib -0.007 | [2] 0.036 | [3] -0.039 | [4] 0.021 | [5] 0.032 | [6] 0.018 | [7] 0.025 | [8] -0.026 | vemurafenib -0.015 | [9] 0 | barasertib 0.103 | [10] -0.032 | volasertib -0.047 | [11] 0.001 | [12] -0.006 | [13] -0.013 | saracatinib -0.011 | sotrastaurin 0.043
